Library screen at single concentrations

By UniProt entry, the sequences of proteins in these tests, tags left out. Residues count along the entry.
UniProt A4I591, 1-473: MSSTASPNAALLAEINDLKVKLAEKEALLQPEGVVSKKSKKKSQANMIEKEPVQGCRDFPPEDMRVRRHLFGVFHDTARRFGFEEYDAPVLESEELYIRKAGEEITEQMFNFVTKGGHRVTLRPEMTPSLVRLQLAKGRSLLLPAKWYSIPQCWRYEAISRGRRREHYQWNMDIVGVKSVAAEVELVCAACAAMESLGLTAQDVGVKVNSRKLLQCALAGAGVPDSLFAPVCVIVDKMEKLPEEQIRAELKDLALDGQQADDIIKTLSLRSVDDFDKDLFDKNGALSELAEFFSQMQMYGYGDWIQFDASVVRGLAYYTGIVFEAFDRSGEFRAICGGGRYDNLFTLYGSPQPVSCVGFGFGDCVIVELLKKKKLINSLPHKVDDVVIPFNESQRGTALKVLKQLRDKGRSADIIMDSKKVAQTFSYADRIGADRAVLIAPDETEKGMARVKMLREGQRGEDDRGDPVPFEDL
UniProt P9WNZ1, whole entry: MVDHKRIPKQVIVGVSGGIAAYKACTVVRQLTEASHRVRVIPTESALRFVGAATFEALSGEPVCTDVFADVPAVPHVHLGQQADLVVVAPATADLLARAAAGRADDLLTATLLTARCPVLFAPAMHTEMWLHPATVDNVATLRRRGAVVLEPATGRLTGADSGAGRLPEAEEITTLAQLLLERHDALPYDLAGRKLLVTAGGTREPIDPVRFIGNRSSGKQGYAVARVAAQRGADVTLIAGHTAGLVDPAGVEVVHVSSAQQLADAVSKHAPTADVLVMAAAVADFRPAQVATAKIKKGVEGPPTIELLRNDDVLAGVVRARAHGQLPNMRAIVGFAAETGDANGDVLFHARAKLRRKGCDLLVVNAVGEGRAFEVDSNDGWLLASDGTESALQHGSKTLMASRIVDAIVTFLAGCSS

The values are deposited in ChEMBL (CHEMBL3988442, “University of Dundee, Small-Polar-MMV Screening Library” (2021)).

LiHisRS: 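Histidine-tRNA ligase, Leishmania infantum (UniProt A4I591). Enzyme assay of histidyl-tRNA synthetase; the read-out is not stated. Tested at 30 µM. The record gives no direction; compounds that gave an IC50 in retests scored well above the rest, so higher reads as stronger inhibition. The assay is labelled LdHisRS but filed under L. infantum. Of about 69,000 compounds tested this way, about 410 (0.6%) reached 50% or more in at least one test.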
Leishmania in macrophages: 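Cell assay of Leishmania donovani living inside macrophages; the read-out is not stated. Tested at 30 µM. The record gives no direction; compounds that gave an IC50 in retests scored well above the rest, so higher reads as stronger inhibition. Size under these conditions: about 69,000 compounds, about 1,000 of them at 50% or above in at least one test.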
CoaBC: 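Coenzyme A biosynthesis protein CoaBC, Mycobacterium tuberculosis (UniProt P9WNZ1). Enzyme assay of CoaBC with a phosphate dye (Biomol Green) read at 650 nm. Compounds at 30 µM. Higher reads as stronger inhibition, judged from the few compounds that gave an IC50. Most strong results did not repeat in a second test. About 67,000 compounds were tested under these conditions; 0.06% (about 40) showed 50% or more at least once.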

Each number is a percent effect as filed.
How 0% and 100% were set is not recorded. Most values in the screen are low, and negative values occur.
Compounds were drawn at random from those tested, without regard to their results.
Two or more numbers in one place are separate tests of the same structure; such repeats can differ widely.

{"structure": "O=S(=O)(NCCCn1cccn1)c1ccc2c(c1)CCC2", "LiHisRS": 13.33, "Leishmania in macrophages": 3.013, "CoaBC": -0.5834}
{"structure": "CC(C)CN1CC2(CCN(C(=O)C3CSC(C)(C)C(=O)N3)CC2)CC1=O", "stereo": "stereo unspecified", "LiHisRS": 1.408, "Leishmania in macrophages": -12.85}
{"structure": "CC(=O)Nc1nc(CS(=O)(=O)Cc2ccccc2)cs1", "LiHisRS": 22.83, "Leishmania in macrophages": 14.81, "CoaBC": -0.6053}
{"structure": "O=C(c1cc(Cn2ccc3ccccc32)[nH]n1)N1CCC[C@H]1CO", "LiHisRS": -48.24, "Leishmania in macrophages": 14.88, "CoaBC": -0.5076}
{"structure": "CC1(C)CNC(=O)c2nc(-c3nnn[nH]3)[nH]c2C1", "LiHisRS": 14.29, "Leishmania in macrophages": 8.965, "CoaBC": 12.97}
{"structure": "CC(C)c1nnsc1CNC(=O)C1CCN(C(=O)C2CCC2)CC1", "LiHisRS": 36.14, "Leishmania in macrophages": 14.27, "CoaBC": 19.42}
{"structure": "Cc1nn(-c2ccc(C(=O)O)cc2)c2c1C(C(F)(F)F)SCC(=O)N2", "stereo": "stereo unspecified", "LiHisRS": 4.167, "Leishmania in macrophages": 11.37, "CoaBC": -1.151}
{"structure": "Cc1nc(C)c(C)c(N2CCC3(CCOC3)C2)n1", "stereo": "stereo unspecified", "LiHisRS": 18.33, "Leishmania in macrophages": 1.47, "CoaBC": 0.2439}
{"structure": "CS(=O)(=O)NC1CCN(C(=O)CCn2cccn2)CC1", "LiHisRS": 10.26, "Leishmania in macrophages": -3.549, "CoaBC": 5.556}
{"structure": "[H][C@@]12CN(C(=O)c3cccnc3)C[C@]1([H])OCC(=O)N2Cc1cccnc1", "Leishmania in macrophages": 9.423}
{"structure": "CCn1ncc2c1C(COCC1CC1)CN(c1ccncn1)C2.O=C(O)C(F)(F)F.O=C(O)C(F)(F)F", "stereo": "stereo unspecified", "Leishmania in macrophages": 24.13}
{"structure": "CCN(CC)S(=O)(=O)NC(=O)c1cc(C)n(-c2ccccc2)n1", "LiHisRS": -27.63, "Leishmania in macrophages": -33.42, "CoaBC": -0.3226}
{"structure": "CCN1CCCC1CNCc1cc2cc(OC)c(OC)cc2[nH]c1=O", "stereo": "stereo unspecified", "LiHisRS": 14.08, "Leishmania in macrophages": 7.364, "CoaBC": 13.3}
{"structure": "CC1(C(=O)NC2CCCC2)CCCN(c2cnccn2)C1", "stereo": "stereo unspecified", "LiHisRS": 10.34, "Leishmania in macrophages": 15.58, "CoaBC": 5.068}
{"structure": "O=C(O)C(F)(F)F.[H][C@@]12CCCO[C@]1([H])[C@@H](NC(=O)N(C)C)CN2C1CCOCC1", "Leishmania in macrophages": "1.551 and -3.876"}
{"structure": "Cc1ccoc1-c1nnc(CNC2CCCN(c3cccnn3)C2)o1", "stereo": "stereo unspecified", "LiHisRS": 30.56, "Leishmania in macrophages": -8.567, "CoaBC": -3.158}
{"structure": "[H][C@]12CC[C@]([H])(CN(Cc3cc(=O)[nH]c(=O)[nH]3)C1)N(CC=C(C)C)C2", "Leishmania in macrophages": -25.67}
{"structure": "NC(=O)CCOc1nc(-c2ccccc2Cl)no1", "LiHisRS": 13.46, "Leishmania in macrophages": 1.432, "CoaBC": 11.3}
{"structure": "CN1CCCC(CNS(=O)(=O)N2CCc3ccccc3C2)C1", "stereo": "stereo unspecified", "LiHisRS": 11.11, "Leishmania in macrophages": 0.2161, "CoaBC": 3.922}
{"structure": "O=C(O)CSc1nnc(-c2ccco2)n1-c1ccccc1C(F)(F)F", "LiHisRS": 16.39, "Leishmania in macrophages": 32.68, "CoaBC": 2.046}
{"structure": "c1ccc(-n2ccc(CN3CCCC3Cn3cncn3)n2)cc1", "stereo": "stereo unspecified", "LiHisRS": 1.923, "Leishmania in macrophages": 1.442, "CoaBC": 2.151}
{"structure": "Cc1ccc2c(c1)CCC2NCc1c(C)nn(C)c1N1CCOCC1.Cl", "stereo": "stereo unspecified", "Leishmania in macrophages": 28.07}
{"structure": "CC(C)CC(=O)N1CC[C@H]2N(C)CC[C@@]2(C(=O)Nc2cccnc2)CC1", "LiHisRS": 11.71, "CoaBC": 1.733}
{"structure": "CN(Cc1cc[nH]n1)C(=O)c1cccc(CCC(C)(C)O)c1", "LiHisRS": 8.738, "Leishmania in macrophages": 14.32, "CoaBC": -6.696}
{"structure": "O=C(CCc1ccc(Br)cc1)NCc1nnc[nH]1", "LiHisRS": 13.33, "Leishmania in macrophages": 14.58, "CoaBC": 3.19}
{"structure": "CC(C)CC(=O)NC[C@H]1CC[C@H](C(c2ccccn2)N(C)C)CC1", "stereo": "stereo partly specified", "LiHisRS": 14.18, "Leishmania in macrophages": 13.67, "CoaBC": 2.086}
{"structure": "C=C(C)COc1ccccc1NC(=O)N1CCCCC1CO", "stereo": "stereo unspecified", "LiHisRS": 17.78, "Leishmania in macrophages": 10.84, "CoaBC": 1.716}
{"structure": "CC(C)c1ccc(CNC(C)c2ccc(S(C)(=O)=O)cc2)cc1", "stereo": "stereo unspecified", "LiHisRS": 21.92, "Leishmania in macrophages": 17.94, "CoaBC": 7.968}
{"structure": "CC(Nc1nc(-c2ccncc2)nc2c1CCNC2)c1ccccc1", "stereo": "stereo unspecified", "LiHisRS": 54.1, "Leishmania in macrophages": 41.34, "CoaBC": -3.23}
{"structure": "Cc1noc(C)c1CN1CCCC(c2noc(C3CC3)n2)C1", "stereo": "stereo unspecified", "LiHisRS": 13.16, "Leishmania in macrophages": -9.956, "CoaBC": 9.197}

The last 4 entries again:

C=C(C)COc1ccccc1NC(=O)N1CCCCC1CO (stereo unspecified) gave LiHisRS: 17.78%; Leishmania in macrophages: 10.84%; CoaBC: 1.716%.
CC(C)c1ccc(CNC(C)c2ccc(S(C)(=O)=O)cc2)cc1 (stereo unspecified) gave LiHisRS: 21.92%; Leishmania in macrophages: 17.94%; CoaBC: 7.968%.
CC(Nc1nc(-c2ccncc2)nc2c1CCNC2)c1ccccc1 (stereo unspecified) gave LiHisRS: 54.1%; Leishmania in macrophages: 41.34%; CoaBC: -3.23%.
Cc1noc(C)c1CN1CCCC(c2noc(C3CC3)n2)C1 (stereo unspecified) gave LiHisRS: 13.16%; Leishmania in macrophages: -9.956%; CoaBC: 9.197%.